In paper doi:10.1101/2021.04.21.440798:
These are yes or no findings as the source states them, for the method shown. Binding seen in cells or lysates may run through a third protein. Here binding means that the protein was enriched with, or labelled near, the bait; the list need not be complete. For some assays here: A no says only that the protein was not detected with the bait.

Amino acid sequences for entries named in this document (tags omitted).
UniProt Q86VP1: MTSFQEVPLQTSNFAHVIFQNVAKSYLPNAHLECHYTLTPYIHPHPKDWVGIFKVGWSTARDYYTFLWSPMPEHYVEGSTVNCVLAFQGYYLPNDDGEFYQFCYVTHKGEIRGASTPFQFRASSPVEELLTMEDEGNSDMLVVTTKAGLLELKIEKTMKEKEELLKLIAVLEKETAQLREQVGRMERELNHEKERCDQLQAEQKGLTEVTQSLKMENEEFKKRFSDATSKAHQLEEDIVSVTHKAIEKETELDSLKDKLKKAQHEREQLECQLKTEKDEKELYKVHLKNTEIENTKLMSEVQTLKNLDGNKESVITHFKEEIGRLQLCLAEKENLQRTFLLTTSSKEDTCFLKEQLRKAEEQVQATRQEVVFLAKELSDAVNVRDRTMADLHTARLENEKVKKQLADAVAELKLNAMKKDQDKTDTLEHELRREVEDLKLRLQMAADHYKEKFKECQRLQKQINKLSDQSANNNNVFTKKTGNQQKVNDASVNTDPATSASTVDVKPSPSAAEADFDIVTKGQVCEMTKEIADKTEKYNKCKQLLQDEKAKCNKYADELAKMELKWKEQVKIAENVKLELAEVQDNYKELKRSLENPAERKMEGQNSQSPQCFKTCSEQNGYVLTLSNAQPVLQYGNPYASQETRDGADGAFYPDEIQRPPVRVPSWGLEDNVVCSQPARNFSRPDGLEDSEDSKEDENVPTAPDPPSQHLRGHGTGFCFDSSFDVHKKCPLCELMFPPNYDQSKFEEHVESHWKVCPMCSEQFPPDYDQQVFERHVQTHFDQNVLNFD

Tests used:
[1] = molecular target: GFP-T6BP (TAX1BP1 / TRAF6-Binding Protein fused to GFP) (UniProt Q86VP1); experiment: affinity purification with mass spectrometry
[2] = molecular target: GFP-T6BP (TAX1BP1 / TRAF6-Binding Protein fused to GFP), Q86VP1; experiment: affinity purification with mass spectrometry; details: remark: other sources report otherwise

Binder | binding [1] | binding [2]
DUB UPS15 (protein, UniProt Q9Y4E8 1-981) MAEGGAADLDTQRSDIATLLKTSLRKGDTWYLVDSRWFKQWKKYVGFDSWDKYQMGDQNVYPGPIDNSGLLKDGDAQSLKEHLIDELDYILLPTEGWNKLVSWYTLMEGQEPIARKVVEQGMFVKHCKVEVYLTELKLCENGNMNNVVTRRFSKADTIDTIEKEIRKIFSIPDEKETRLWNKYMSNTFEPLNKPDSTIQDAGLYQGQVLVIEQKNEDGTWPRGPSTPKSPGASNFSTLPKISPSSLSNNYNNMNNRNVKNSNYCLPSYTAYKNYDYSEPGRNNEQPGLCGLSNLGNTCFMNSAIQCLSNTPPLTEYFLNDKYQEELNFDNPLGMRGEIAKSYAELIKQMWSGKFSYVTPRAFKTQVGRFAPQFSGYQQQDCQELLAFLLDGLHEDLNRIRKKPYIQLKDADGRPDKVVAEEAWENHLKRNDSIIVDIFHGLFKSTLVCPECAKISVTFDPFCYLTLPLPMKKERTLEVYLVRMDPLTKPMQYKVVVPKIGNILDLCTALSALSGIPADKMIVTDIYNHRFHRIFAMDENLSSIMERDDIYVFEININRTEDTEHVIIPVCLREKFRHSSYTHHTGSSLFGQPFLMAVPRNNTEDKLYNLLLLRMCRYVKISTETEETEGSLHCCKDQNINGNGPNGIHEEGSPSEMETDEPDDESSQDQELPSENENSQSEDSVGGDNDSENGLCTEDTCKGQLTGHKKRLFTFQFNNLGNTDINYIKDDTRHIRFDDRQLRLDERSFLALDWDPDLKKRYFDENAAEDFEKHESVEYKPPKKPFVKLKDCIELFTTKEKLGAEDPWYCPNCKEHQQATKKLDLWSLPPVLVVHLKRFSYSRYMRDKLDTLVDFPINDLDMSEFLINPNAGPCRYNLIAVSNHYGGMGGGHYTAFAKNKDDGKWYYFDDSSVSTASEDQIVSKAAYVLFYQRQDTFSGTGFFPLDRETKGASAATGIPLESDEDSNDNDNDIENENCMHTN | binds | –
Myosin-VI, Q9UM54 1-1294 (protein) MEDGKPVWAPHPTDGFQMGNIVDIGPDSLTIEPLNQKGKTFLALINQVFPAEEDSKKDVEDNCSLMYLNEATLLHNIKVRYSKDRIYTYVANILIAVNPYFDIPKIYSSEAIKSYQGKSLGTRPPHVFAIADKAFRDMKVLKMSQSIIVSGESGAGKTENTKFVLRYLTESYGTGQDIDDRIVEANPLLEAFGNAKTVRNNNSSRFGKFVEIHFNEKSSVVGGFVSHYLLEKSRICVQGKEERNYHIFYRLCAGASEDIREKLHLSSPDNFRYLNRGCTRYFANKETDKQILQNRKSPEYLKAGSMKDPLLDDHGDFIRMCTAMKKIGLDDEEKLDLFRVVAGVLHLGNIDFEEAGSTSGGCNLKNKSAQSLEYCAELLGLDQDDLRVSLTTRVMLTTAGGTKGTVIKVPLKVEQANNARDALAKTVYSHLFDHVVNRVNQCFPFETSSYFIGVLDIAGFEYFEHNSFEQFCINYCNEKLQQFFNERILKEEQELYQKEGLGVNEVHYVDNQDCIDLIEAKLVGILDILDEENRLPQPSDQHFTSAVHQKHKDHFRLTIPRKSKLAVHRNIRDDEGFIIRHFAGAVCYETTQFVEKNNDALHMSLESLICESRDKFIRELFESSTNNNKDTKQKAGKLSFISVGNKFKTQLNLLLDKLRSTGASFIRCIKPNLKMTSHHFEGAQILSQLQCSGMVSVLDLMQGGYPSRASFHELYNMYKKYMPDKLARLDPRLFCKALFKALGLNENDYKFGLTKVFFRPGKFAEFDQIMKSDPDHLAELVKRVNHWLTCSRWKKVQWCSLSVIKLKNKIKYRAEACIKMQKTIRMWLCKRRHKPRIDGLVKVGTLKKRLDKFNEVVSVLKDGKPEMNKQIKNLEISIDTLMAKIKSTMMTQEQIQKEYDALVKSSEELLSALQKKKQQEEEAERLRRIQEEMEKERKRREEDEKRRRKEEEERRMKLEMEAKRKQEEEERKKREDDEKRIQAEVEAQLARQKEEESQQQAVLEQERRDRELALRIAQSEAELISDEAQADLALRRSLDSYPVSKNDGTRPKMTPEQMAKEMSEFLSRGPAVLATKAAAGTKKYDLSKWKYAELRDTINTSCDIELLAACREEFHRRLKVYHAWKSKNKKRNTETEQRAPKSVTDYDFAPFLNNSPQQNPAAQIPARQREIEMNRQQRFFRIPFIRPADQYKDPQSKKKGWWYAHFDGPWIARQMELHPDKPPILLVAGKDDMEMCELNLEETGLTRKRGAEILPRQFEEIWERCGGIQYLQNAIESRQARPTYATAMLQSLLK | – | no binding
